Measured values taken from patent US10183015B2, “Heterocyclic compounds and methods of use” (Medivation Technologies LLC, priority 2015, dated 2019).
For at least one compound, name, drawing or mass did not settle the structure.

Tests used:
[1] = test system: healthy dogs; experiment: 28-day repeat-dose toxicity study in healthy dogs: serum triglyceride and cholesterol; format: in vivo, dog; conditions: doses≥5 mg/kg/day, 28 days
[2] = test system: ACC1; experiment: Short-term Paigen-diet NASH mouse model: hepatic ACC1 gene expression (RT-qPCR); format: in vivo; conditions: dose-dependent manner
Procedure: To investigate whether Compound #37 prevents the development of pathology associated with NASH and steatosis in an acute exploratory disease model, a study was conducted using a diet-induced acute liver steatosis model in mice. As described below, in this study, C57BL/6J mice were initiated on the Paigen diet and simultaneously treated with Compound #37 (5, 20, and 40 mg/kg/day) or vehicle control (20% HPβCD 10 mL/kg/day) by oral gavage for 21 days.
After acclimation, 8-week old male C57Bl/6J mice (Charles River) weighing about 25 g were randomized in 4 groups according their body weight and treated once daily around noon by oral gavage with vehicle, or Compound #37 at various for 21 days as follows: Group 1: vehicle-20% (2-hydroxypropyl)-β-cyclodextrin (HP-β-CD) (n=10); Group 2: Compound #37, 5 mg/kg (n=10) Group 3: Compound #37, 20 mg/kg (n=10) Group 4: Compound #37, 40 mg/kg (n=10). During the treatment period, body weight and food intake (measured over 24h) were measured 3 times per week and once a week, respectively. […]
Gene expression analysis. Hepatic expression levels of genes involved in lipid metabolism (FAS, SREBP1, ACC1, SCD1), cholesterol metabolism (HMG-CoAR, LDLR), SREBP proteolysis (SCAP, INSIG1), ER stress (PERK), oxidative stress (NRF2), inflammation (MCP-1), and fibrosis (collagen 1α1) were quantified by RTqPCR. […]

[3] = test system: liver lipids and cholesterol metabolism genes; experiment: Short-term Paigen-diet NASH mouse model: hepatic gene expression panel (RT-qPCR), summary statements; conditions: in vivo
[4] = test system: diet-induced NASH obese insulin resistant mice; experiment: Diet-induced NASH (DIN) obese insulin-resistant mouse model: plasma ALT and AST; format: in vivo; conditions: 20 mg/kg, 70-day treatment
Procedure: (§1) Male C57Bl/6J mice (8 weeks old) were housed in enriched ventilated cages (31×12.5×12.7 cm) throughout the experimental phase. Animals' cages litters were changed at least once a week. Animal were housed 5 per cage on inverted 12-hour light cycle (at 09:00 am lights off), 22±2° C. and 55±10% relative humidity. The acclimation period was 20 days. During the acclimation period, all mice were fed a standard diet (RM1 (E) 801492, SDS) and tap water ad libitum. After the acclimation period, mice were fed with the DIN diet (60% fat, cholesterol enriched) and fructose-enriched tap water ad libitum until the end of the experiment.
(§2) At 6 weeks of diet, mice were 4-hour fasted (09:00 am to 1:00 pm) and blood (150 μl/EDTA) was collected at 01:00 pm by retro-orbital bleeding under isoflurane anesthesia. Mice were then allocated in 2 homogenous groups (n=12/group) according to their plasma levels of ALT (average levels: 685U/L), AST (average levels: 627U/L) and HOMA-IR index (average value: 4.7), into 2 homogenous groups (see values at day 0 in Tables 15A and 15B ALT/AST and Tables 16A and 16B for HOMA-IR). Mice were then treated once daily by oral gavage with vehicle (Group 1) or Compound #37 at 20 mg/kg (Group 2) for 70 days.
(§3) To investigate whether Compound #37 improves pre-existing steatosis/NASH pathology, a study was conducted using a 16-week diet-induced NASH mouse model. […]

[5] = test system: diet-induced NASH obese insulin resistant mice; experiment: DIN mouse model: liver weight and liver lipid levels; format: in vivo; conditions: 20 mg/kg, 70 days
Procedure: as §1, §2, §3

Q: What does the source list for `CC(C)Cc1cc(-c2nc(-c3ccc(NS(=O)(=O)C(F)(F)F)cc3Cl)cs2)ccn1` [Compound 37, N-(3-chloro-4-(2-(2-isobutylpyridin-4-yl)thiazol-4-yl)phenyl)-1,1,1-trifluoromethanesulfonamide]?
A: serum cholesterol concentrations [1]: mild to moderate decreases; serum triglyceride concentrations [1]: mild to moderate decreases; ACC1 liver gene expression [2]: decreased; Liver lipids and cholesterol metabolism genes (RT-qPCR), except ACC1 [3]: unchanged; plasma ALT/AST levels and area under the curve [4]: no significant change; liver fatty acids and triglycerides levels [5]: unchanged
